According to publication doi:10.1101/2025.08.27.672337:
No constants are given. Whether binding was seen depends on the method and setting. Some results given as binding are weak or reduced against the parent protein; the word gives no strength. Values belong to the molecule of their own block, whether it stands above or below them.

Chains of the proteins cited; added tags and fusions are not shown. Lines headed by an entry give the natural chain unless they say otherwise; changes in a name come on top. A line that says so, or that is headed by a name, gives the form on record, which may keep a tag or linker. Residues count along the entry.
talin1 R7R8 (P26039, residues 1357-1659): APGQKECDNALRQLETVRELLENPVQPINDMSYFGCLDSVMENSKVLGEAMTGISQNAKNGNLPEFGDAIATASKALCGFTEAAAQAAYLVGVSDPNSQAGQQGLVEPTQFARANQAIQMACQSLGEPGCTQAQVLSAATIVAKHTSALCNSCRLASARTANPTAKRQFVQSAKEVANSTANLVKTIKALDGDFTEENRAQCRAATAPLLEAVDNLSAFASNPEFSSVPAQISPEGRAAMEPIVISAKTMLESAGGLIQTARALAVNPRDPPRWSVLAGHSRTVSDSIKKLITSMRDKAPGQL
talin1 R8 (P26039, residues 1461-1580): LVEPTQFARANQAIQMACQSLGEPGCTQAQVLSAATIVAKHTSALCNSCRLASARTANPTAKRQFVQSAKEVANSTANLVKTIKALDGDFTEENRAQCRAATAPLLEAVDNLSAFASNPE
talin1 R7 (P26039, form named): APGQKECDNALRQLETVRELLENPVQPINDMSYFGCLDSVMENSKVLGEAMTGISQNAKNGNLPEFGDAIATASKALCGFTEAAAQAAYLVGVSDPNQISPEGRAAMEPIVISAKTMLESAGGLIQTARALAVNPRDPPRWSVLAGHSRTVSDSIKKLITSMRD
PSD-95 PDZ2 domain (P78352, residues 155-249): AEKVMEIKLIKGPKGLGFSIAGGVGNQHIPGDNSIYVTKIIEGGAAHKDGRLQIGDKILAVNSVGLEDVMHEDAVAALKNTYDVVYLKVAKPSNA
PSD-95 PDZ3 domain (P78352, residues 302-402): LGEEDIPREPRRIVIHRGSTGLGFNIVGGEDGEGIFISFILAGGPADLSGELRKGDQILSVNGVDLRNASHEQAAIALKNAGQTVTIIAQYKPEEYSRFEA
UniProt P06493: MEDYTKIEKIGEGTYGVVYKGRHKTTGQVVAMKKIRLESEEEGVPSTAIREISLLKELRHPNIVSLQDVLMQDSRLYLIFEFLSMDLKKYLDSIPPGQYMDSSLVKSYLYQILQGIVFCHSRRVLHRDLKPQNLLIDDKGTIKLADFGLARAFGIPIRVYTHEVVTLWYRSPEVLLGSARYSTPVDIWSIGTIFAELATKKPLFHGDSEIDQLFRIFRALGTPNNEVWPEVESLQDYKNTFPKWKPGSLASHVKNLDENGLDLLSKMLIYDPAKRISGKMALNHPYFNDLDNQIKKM

What was measured:
talin1 R7R8 (mouse) = talin1 R7R8 (mouse) (UniProt P26039); assay: fluorescence polarisation
talin1 R8 (mouse) = talin1 R8 (mouse) (UniProt P26039); assay: NMR titration
[1] = target: T1, SHANK2 PDZ domain (mouse) (UniProt Q80Z38); assay: NMR titration
T1 sequence: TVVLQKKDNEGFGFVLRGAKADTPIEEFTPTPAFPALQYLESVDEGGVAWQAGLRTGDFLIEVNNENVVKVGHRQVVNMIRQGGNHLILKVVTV

[2] = target: T1, SHANK2 PDZ domain (mouse); assay: fluorescence polarisation
[3] = target: T2, SHANK3 PDZ domain (mouse) (UniProt Q4ACU6); assay: fluorescence polarisation
T2 sequence: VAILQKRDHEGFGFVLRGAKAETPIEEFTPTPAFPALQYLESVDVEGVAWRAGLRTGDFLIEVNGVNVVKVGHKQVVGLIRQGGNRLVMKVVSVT

talin1 R7 (mouse) = talin1 R7 (mouse) (UniProt P26039); assay: NMR titration
[4] = target: PSD-95 PDZ3 domain (human) (UniProt P78352); assay: fluorescence polarisation
[5] = target: PSD-95 PDZ2 domain (human) (UniProt P78352); assay: fluorescence polarisation

- binding (talin1 R7R8 (mouse)): binds
Molecule: CDK1^206-223 peptide, dye-labelled for FP (from UniProt P06493 206-223)

- binding (talin1 R8 (mouse)): no binding (tested: 1:3 ratio)
Molecule: CGESEIDQAATIQKVLGPLPSEQ (peptide, UniProt O76039-2 213-234) [CDKL5^213-234 2A peptide (L220A, F221A)]

- binding [1]: no binding (tested: 1:3 molar ratio)
Molecule: CYNRTNRSRMPNLNDLKETAD (peptide, UniProt O76039-2 941-960) [CDKL5-1^941-960 L960D peptide, unlabelled]

- binding [2]: no binding
- binding [3]: no binding
Molecule: CYNRTNRSRMPNLNDLKETAD (peptide, UniProt O76039-2 941-960, maleimide-fluorescein coupled to the non-native N-terminal cysteine) [CDKL5-1^941-960 L960D peptide, fluorescein-labelled]

- binding (talin1 R7 (mouse)): no binding (tested: 1:3 molar ratio)
Molecule: CGESEIDQLFTIQKVLGPLPSEQ (peptide, UniProt O76039-2 213-234) [CDKL5^213-234 peptide (NMR)]

- binding [2]: no binding
- binding [4]: no binding
- binding [5]: no binding
- binding [3]: no binding
Molecule: CAQVNQAALLTYHENAALTGK (peptide, UniProt O76039-1 1011-1030, maleimide-fluorescein coupled to the non-native N-terminal cysteine) [CDKL5-2^1011-1030 peptide, fluorescein-labelled]
